# Patent US10624880B2, “Predicting response to alvocidib by mitochondrial profiling” (Tolero Pharmaceuticals, Inc., priority 2015, dated 2020)
# System: MV-4-11 cells
# Test: 24 hour EC50 in MV-4-11 cells
# Type: cell-based
# Conditions: Homo sapiens, MV4-11, read-out: 24 hour EC 50
# Description: Following the treatment, cells were harvested and prepared using standard immunoblotting techniques for detection of MCL-1.
structure (smiles),measurement,value
CCc1cnn2c(NCc3ccc[n+]([O-])c3)cc(N3CCCC[C@H]3CCO)nc12 [dinaciclib],EC50,50 nM
